In patent EP1270000A2, “Benzoic acid substituted benzopyrans for the treatment of atherosclerosis” (Pfizer Products Inc., priority 2001, dated 2003):

Experiment: Plasma lipids (total plasma cholesterol and triglycerides)
Type: in vivo, mice
[1] = 129E^-/-, F, 15 wks, 30 mg/kg orally 35 days, chow diet
[2] = 129E^-/-, F, 15 wks, 50 mg/kg orally 35 days, chow diet
[3] = 129E^-/-, F, 15 wks, 100 mg/kg orally 35 days, chow diet
[4] = 129E^-/-, F, 20 wks, 30 mg/kg orally 35 days, chow diet
[5] = 129E^-/-, F, 24 wks, 100 mg/kg orally 35 days, chow diet
[6] = C57E^-/-, F, 22 wks, 100 mg/kg orally 35 days, chow diet
[7] = C57E^-/-, M, 16 wks, 100 mg/kg orally 35 days, chow diet
[8] = LDLr^-/-, M, 18 wks, 30 mg/kg orally 35 days, Western diet
[9] = MCP-1 ^-/- X ApoE^-/-, M, 15 wks, 30 mg/kg orally 35 days
[10] = MCP-1 ^-/- X ApoE^-/-, M, 15 wks, 100 mg/kg orally 35 days
[11] = MCP-1 ^-/- X ApoE^-/-, M, 30 wks, 100 mg/kg orally 35 days

O=C(O)c1ccc(C(F)(F)F)cc1-c1ccc2c(c1)OC[C@H](Cc1ccccc1)[C@H]2O [(3S, 4R)-7-(2-carboxy-5-trifluoromethylphenyl)-4-hydroxy-3-benzyl-3,4-dihydro-2H-1-benzopyran]
TG [1]: 83 ± 40 mg/dL
TPC [1]: 584 ± 58 mg/dL
TG [2]: 59 ± 17 mg/dL
TPC [2]: 675 ± 181 mg/dL
TG [3]: 36 ± 13 mg/dL
TPC [3]: 858 ± 166 mg/dL
TG [4]: 138 ± 21 mg/dL
TPC [4]: 780 ± 51 mg/dL
TG [5]: 102 ± 9 mg/dL
TPC [5]: 579 ± 37 mg/dL
TG [6]: 116 ± 6 mg/dL
TPC [6]: 640 ± 41 mg/dL
TG [7]: 169 ± 57 mg/dL
TPC [7]: 801 ± 71 mg/dL
TG [8]: 532 ± 205 mg/dL
TPC [8]: 798 ± 300 mg/dL
TG [9]: 82 ± 12 mg/dL
TPC [9]: 345 ± 15 mg/dL
TG [10]: 79 ± 15 mg/dL
TPC [10]: 354 ± 20 mg/dL
TPC (MCP-1 ^-/- X ApoE^-/-, M, 30 wks, 30 mg/kg orally 35 days): 565 ± 22 mg/dL
TG [11]: 47 ± 2 mg/dL
TPC [11]: 576 ± 21 mg/dL
